Results on one sequence are retold here after publication PMC10690843.

Construct, isoform or probe ends are uncertain for at least one entry.

This data set addresses alpha-synuclein oligomers, 6 h aggregated (UniProt P37840). Description: blotting assay. Conditions: alpha-synuclein oligomers of the cited work, preparation may differ from P1, Incubation 2 h in 100 mM KCl, 50 mM NaCl, 5 mM MgCl2, 10 mM Tris-EDTA pH 8.0 (oligomers diluted in PBS pH 7.3), measured in 2 M LiCl, recombinant protein, folded or branched DNA.

A word on the Kd: it is the constant that tells how readily two partners part at equilibrium. Consider “GGTGCGGCGGGACTAGTGGGTGTG [T-SO530 aptamer alone]”, for which the Kd came out at 0.063 µM.
